Reference: article PMC10163288
The list shows a part of the results.

B1: il10ra_site1_sap_13_mot_HHH_b1_03277_000000286_0001_44_57_H_._HHH_b2_06223_af2_0002_0000300013_0000001_0_0001 (protein)
chain: SSSSDESQRVYELLREAAELHHNGDPEEAERVLEEAEEIVEELGSMNMRMVLEFLLRKVRESSSS
B2: il10ra_site1_sap_12_mot_HHH_b1_06819_af2_000000053_0001_23_38_H_._HHH_b1_06833_af2_0001_0000200005_0000001_0_0001 (protein)
chain: SSSSSEEQRLLELARELFRLMLRNDEEEARRVLEELLELAEQLGNEKVREMAEDLEKVLKSSSSS
B3: il10ra_site1_normal_mot_HHH_b1_08176_000000188_0001_1_20_H_._HHH_b2_05776_af2_0001_0000100004_0000001_0 (protein)
chain: SSSSNEELQEALELSLEALRLALRGNPEEAKEVLEKALELAERGNNPQLARQIEEMLRAQKSSSS
B4: il10ra_site1_sap_24_mot_HHH_b2_00800_af2_000000047_0001_1_20_H_._HHH_b1_03475_0001_0000600024_0000002_0_0001 (protein)
chain: SSSSSDVAELAQEALRLAFQNGDEEALQAVWRIVKRLARGLMDPEEAEELLQELIEELRSSSSSS
B5: il10ra_site1_normal_mot_HHH_b1_05937_af2_000000262_0001_20_37_H_._HHH_b1_01215_af2_0001_0000500035_0000001_0 (protein)
chain: SSSSDEVEERAEELIERIEELIENGNPEEALRLIIELLRLAFENRDEEIMKEAWRLAQLLRSSSS
B6: il10ra_site1_normal_mot_HHH_b2_00612_000000251_0001_1_14_H_._HHH_b1_00998_af2_0001_0000200009_0000002_0_af2pred_dldesign_0_af2pred (protein)
chain: SSSSSEEEVERRIEELLARAKAAGNPYLLESVEYLVARYRETGDPSCLEAAELALEQHEKLSSSS
B7: il10ra_site1_normal_mot_HHH_b2_00475_000000107_0001_44_57_H_._HHH_b2_03520_0001_0000100003_0000002_0 (protein)
chain: SSSSDAEEVAHLLFRAIELLFRGDKEEAEELVEEAKEIAEESNDPELQRYVEIAEHFVKAHSSSS
B8: il10ra_site1_sap_30_mot_HHH_b1_08001_000000032_0001_1_19_H_._HHH_b2_00086_0001_0000200010_0000001_1_0001 (protein)
chain: SEKEELEELLEELGVPPELIRQLRKAFRLQAEQGAPPETVVRALEMFVRARGDPLAEEALELFLK
B9: il10ra_site1_normal_mot_HHH_b1_02809_af2_000000277_0001_40_57_H_._HHH_b1_08623_0001_0000100005_0000002_0_af2pred_0001 (protein)
chain: SSSSSEEARKAAEFLLRAAEEIPDPEKARLAIRFAIHLAKYANDPELVEELEEVLRELERSSSSS
B10: il10ra_site1_normal_mot_HHH_b1_08411_af2_000000053_0001_1_20_H_._HHH_b2_04602_0001_0000100002_0000001_0 (protein)
chain: SSSSQESFEIARRAIERAIELARRGNPEEAEEVLREAEELVRELNDETTLWSLEFALRAESSSSS
B11: il10ra_site1_sap_14_mot_cff26900b2948c323735a169404cbef0_0001_1_000000271_0001_18_33_H_._4a6c97db08e0c392ed9b478c1fd9fef5_0001_1_0001_0000300022_0000001_0_0001_ … (protein)
chain: SSSSDERTHEIIKLIRRFVELLRNGDEEEAEEVVKEAEELAKEAGNRLFLFIIKFLKERNSSSSS
B12: il10ra_site1_normal_mot_HHH_b2_03220_af2_000000223_0001_23_40_H_._HHH_b1_01997_0001_0000400021_0000002_0 (protein)
chain: SSSSSTEENEEIWKLLHEALRIPDKEEAERLVEEAIEIAEEANNEVLLIQARFALRAIKLSSSSS
B13: il10ra_site1_sap_13_mot_HHH_b1_06788_af2_000000238_0001_19_36_H_._HHH_b1_06454_af2_0001_0000600013_0000001_0_0001 (protein)
chain: SSSSDEEEQRVLELLKRANRLAFRGNPEEARELVEEAEEIAKELGDPALEEAVEIVKRFVKSSSS
B14: il10ra_site1_sap_28_mot_HHH_b1_05021_af2_000000167_0001_42_56_H_._HHH_b2_07882_af2_0001_0000700011_0000001_0_0001 (protein)
chain: SSSSSEAARELYELSREAAELHHEGNPEEARKVLEEAFELAEEAGNWNFLWVIRMLLELLSSSSS
B15: il10ra_site1_sap_21_mot_HHH_b1_05303_af2_000000175_0001_41_57_H_._HHH_b2_05875_af2_0001_0000400032_0000001_0_0001 (protein)
chain: SSSSSEEEERIERLLEEIRELLEEGDYREASQLLQEATHLALRASNKELLQEIWELVQEVASSSS
B16: il10ra_site1_normal_mot_HHH_b1_01082_af2_000000031_0001_3_19_H_._HHH_b2_03832_af2_0001_0000500020_0000001_0 (protein)
chain: SSSSSNEYEEVKRAIEEAIRLYREGNPEEARRLLEEVIEEAEEAGNFAAVWSLEHLLRLLSSSSS
B17: il10ra_site1_normal_mot_HHH_b2_07442_000000239_0001_40_54_H_._HHH_b2_05222_af2_0001_0000400026_0000002_0 (protein)
chain: SSSSSDESRRVYELLRRAAEADHEGDKEKAEEILEEAEELAEEGNNEVLAFVVEFLLRLVSSSSS
B18: il10ra_site1_normal_mot_HHH_b1_03031_af2_000000117_0001_17_33_H_._HHH_b1_04005_af2_0001_0001200026_0000002_0_af2pred_0001 (protein)
chain: SSSSSDEEERKRAAELLWLAARLGDEELVHRLLELAARYLLEGDPRYVEEMEQLVEEVEKSSSSS
B19: il10ra_site1_normal_mot_b26a303360aa2756ef5b79665ce52f45_0001_000000179_0001_1_11_H_._HHH_b2_05702_af2_0001_0000300024_0000001_1_af2pred_0001 (protein)
chain: SSSSSSESEEIFRLIREAAELAFRGDPRAEEVAEEALELAEEAGNLVARFAIEHLLRDLTSSSSS
B20: il10ra_site1_normal_mot_HHH_b1_03262_af2_000000181_0001_43_57_H_._HHH_b1_05284_0001_0000100004_0000001_0 (protein)
chain: SSSSSSEERAREAARFLLEAAKQIEDPEYVREALRFALHLARFANDEELEEEIERLLEEYSSSSS
B21: il10ra_site1_normal_mot_HHH_b1_05357_000000034_0001_23_39_H_._HHH_b2_02453_0001_0000500021_0000001_0_af2pred_0001 (protein)
chain: SSSSDVEEELEELLEEAKRIEDLDRAAYVLIRAFALATQRRDPELEEFVEEVAKEISEEGSSSSS
B22: il10ra_site1_normal_mot_8756ee2cf497b5429c717dfc0c0bcfd6_0001_000000186_0001_1_13_H_._HHH_b2_04715_af2_0001_0000800036_0000001_0 (protein)
chain: SSSSSDLEELFELLRRIAELLHEGDEEEAEELIERVKELAKELNNDVARFQAEYLERSLNSSSSS
B23: il10ra_site1_normal_mot_HHH_b1_02062_000000185_0001_1_20_H_._HHH_b1_08647_0001_0000200022_0000001_0_af2pred_0001 (protein)
chain: SSSSDLIERVKELLEEAIELLRRGNPEEAEKLLEEAEELVREAGDQNTLAVIRFLLERLKSSSSS
B24: il10ra_site1_sap_16_mot_HHH_b2_00984_000000042_0001_1_20_H_._HHH_b1_04080_0001_0000500059_0000001_0_0001 (protein)
chain: SSSSDLSQEIYEALKELIELVSENDDERFEELVEEIERLIEEAKSQLMEFVLRIIRRDFHSSSSS
B25: il10ra_site1_sap_17_mot_HHH_b2_01310_000000089_0001_41_55_H_._HHH_b1_06780_af2_0001_0000200021_0000001_0_0001 (protein)
chain: SSSSDEEKLEIIREAVENLFEQAEEKNSELARILIRQALKAAKLLGDPELAEEIEELLKQLSSSS
B26: il10ra_site1_sap_22_mot_HHH_b1_07097_af2_000000269_0001_1_16_H_._HHH_b2_07321_af2_0001_0000200007_0000001_0_0001_af2pred_dldesign_0_af2pred (protein)
chain: SSSSAEAEALFEETKKELERLLAAGKYQEAYDLLKEAIEELIAMGAPELARELANYFLELASSSS
B27: il10ra_site1_normal_mot_HHH_b1_01821_000000158_0001_23_39_H_._HHH_b2_07952_0001_0000600024_0000001_0 (protein)
chain: SSSSSDEEEREEIEELLEEAEKIEDPRRRNELLLEALRIALHAQNAELLQEIWEVFKELSSSSSS
B28: il10ra_site1_sap_16_mot_HHH_b1_01307_000000115_0001_1_18_H_._HHH_b1_03429_0001_0000400030_0000001_0_0001_af2pred_0001 (protein)
chain: SSSSSSREELIRRVAELLAEAARVSDEEEVEKLLEEARRLAEEANNPALEWLVRAAEERNSSSSS
B29: il10ra_site1_sap_23_mot_HHH_b2_00441_000000147_0001_1_18_H_._HHH_b1_03163_0001_0000200008_0000001_0_0001 (protein)
chain: SKLEEVEELLEELAKRDVVAISLLHALRADKEAGVPPEEILEFLKEVARRANSPFARELLKLLEK
B30: il10ra_site1_normal_mot_HHH_b2_03220_af2_000000223_0001_23_40_H_._HHH_b2_04558_af2_0001_0001000054_0000001_0 (protein)
chain: SSSSSSDNEEIWKLLREALHIPDPEEARKLVEEALELAEELGNELLAIQARFLERALGSSSSSSS
B31: il10ra_site1_sap_25_mot_HHH_b1_05937_af2_000000262_0001_20_37_H_._HHH_b2_06195_af2_0001_0000800017_0000001_0_0001 (protein)
chain: SSSSSDEEVEERVEELLERLHKVDPQEAYELLREAIELAAENNDPELQREIMRALREWMHSSSSS
B32: il10ra_site1_normal_mot_HHH_b2_08144_af2_000000046_0001_38_52_H_._HHH_b1_01529_af2_0001_0000300029_0000001_0 (protein)
chain: SSSSDEELRRVYELIREAARLHHEGNPEEARKVLEEAEELAEEANNELLLFQVEFMLRAVNSSSS
B33: il10ra_site1_normal_mot_8756ee2cf497b5429c717dfc0c0bcfd6_0001_000000186_0001_1_13_H_._HHH_b1_05005_af2_0001_0000100006_0000001_0 (protein)
chain: SSSDEAQRIVELIRLVVELLREGNKEEAEEVLEEAQELAEELGNDVFRVQLEYLRKLLERESSSS
B34: il10ra_site1_sap_20_mot_HHH_b1_07286_af2_000000054_0001_1_19_H_._HHH_b2_02170_af2_0001_0000300005_0000001_0_0001 (protein)
chain: SSSSDEEQQELNELVLRAFRLALRGNPEEARELLEEAEELAREVGDERMLKIVEDMLRSISSSSS
B35: il10ra_site1_sap_23_mot_HHH_b2_01705_af2_000000069_0001_44_57_H_._HHH_b1_00774_0001_0000100006_0000002_0_0001 (protein)
chain: SSSSDAAEFLVEQAIRAAELLIKAGDPEEARRAIEIAERTVERLGNEELLRKLEEVEEELNSSSS
B36: il10ra_site1_normal_mot_HHH_b1_00999_000000080_0001_41_55_H_._HHH_b2_04713_0001_0000400032_0000001_0 (protein)
chain: SSSSDEEEEEVKKLLERAEELYENGNPQEAIEVLLRALRLIFELQDPELLRELWKLVKEIGSSSS
B37: il10ra_site1_sap_21_mot_HHH_b2_08004_000000101_0001_1_17_H_._HHH_b1_06586_af2_0001_0002500045_0000001_0_0001 (protein)
chain: SSSSDVEEEVERLLEEAEELARRGNPEEAAELLREAVQFALRANDPELLQEVWEVVRRVAGSSSS

biological target: il10ra, Q13651; assay: yeast display titration

Apparent Kd, inactive:
B1 no binding seen, B2 no binding seen, B3 no binding seen, B4 no binding seen, B5 no binding seen, B6 no binding seen, B7 no binding seen, B8 no binding seen, B9 no binding seen, B10 no binding seen, B11 no binding seen, B12 no binding seen, B13 no binding seen, B14 no binding seen, B15 no binding seen, B16 no binding seen, B17 no binding seen, B18 no binding seen, B19 no binding seen, B20 no binding seen, B21 no binding seen, B22 no binding seen, B23 no binding seen, B24 > 711 nM, B25 no binding seen, B26 no binding seen, B27 no binding seen, B28 no binding seen, B29 no binding seen, B30 no binding seen, B31 no binding seen, B32 no binding seen, B33 no binding seen, B34 no binding seen, B35 no binding seen, B36 no binding seen, B37 no binding seen
